± gives the standard deviation. The list shows a part of the results. Many of these values have a large error.

The subject of the experiment is EfPiwi piRISC loaded with L1MC piRNA (26 nt). In words: pre-steady-state target cleavage rate (min^-1); guide: L1MC piRNA 5'p-UAACUAAAUACUAUGCAAGCUGUAGG; MIWI and MILI are mouse PIWI proteins and EfPiwi is from a freshwater sponge; tags in brackets are library labels; higher = faster piRNA-guided slicing of the target. The procedure, abridged:
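Active affinity-purified piRISC carrying one synthetic guide (1 nM) was mixed with a transcribed, DNA-blocked target RNA library […] in HEPES–potassium acetate buffer at 33 °C for 0–8 or 0–960 min, with or without 500 nM GTSF1 partner protein. Uncleaved targets were then sequenced and normalised to depth and to weakly complementary targets. Three trials were pooled, and k3 was capped at 0.0001 min^-1. A burst-and-steady-state fit was applied to obtain the pre-steady-state cleavage rate.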

Setting [1] is: auxiliary factor: 500 nM Ephydatia muelleri Gtsf1.
Where [2] appears, read: auxiliary factor: none (no Gtsf1).

For UCCUGGUAGAGCUUGGAUAGUAUUUAGUUA, the “pre-steady-state target cleavage rate” value runs as follows: under setting [1], 0.004 ± 0.0023; under setting [2], 0.000232 ± 0.043.
With UCCUGGAUGAGCAUGCAUAGUAUAUAGUUA, the “pre-steady-state target cleavage rate” value under setting [1] came to 0.00333 ± 0.0032 and the “pre-steady-state target cleavage rate” value under setting [2] was 0.000319 ± 0.03.
The like results for UCCUGGAUGUCGAACGUUAGUAUUUAGAUA were, in that order, < 0.0001 and < 0.0001.
Turning to UCCUGGAUGUCCGUGCAUAGUAUUUAGUUA, the “pre-steady-state target cleavage rate” value by setting is: under setting [1], 0.00483 ± 0.0024; under setting [2], 0.000667 ± 0.013.
UCCUGGAUGAGCAUGCAUAGUAUUUAGAUA: the “pre-steady-state target cleavage rate” value came to 0.00142 ± 0.0044 under setting [1] and 0.000828 ± 0.0084 under setting [2].
The like results for UCCUGCUACACCUUGCUUAGUAUUUAGUUA were, in that order, 0.00903 ± 0.0035 and 0.00103 ± 0.0089.
For UCCUGGAAGAGCUUGCAUUGUAUUUAGUUA, the “pre-steady-state target cleavage rate” value came to 0.0104 ± 0.0029 under setting [1] and 0.00292 ± 0.004 under setting [2].
As for UCCUGGAAGAGCUUGCAUAGUAUUUUGUUA, the “pre-steady-state target cleavage rate” value runs as follows: under setting [1], 0.00497 ± 0.0026; under setting [2], 0.00104 ± 0.011.
The like results for UCCUGCUACACCUUGCAUUGUAUUUAGUUA were, in that order, 0.00323 ± 0.0025 and 0.000313 ± 0.023.
The like results for UCCUGGAUGAGCUUGCAUUGUAUUUAGUUA were, in that order, 0.00376 ± 0.0029 and 0.00114 ± 0.0084.
The like results for UCCUGGAACAGCUUGGAUAGUAUUAAGUUA were, in that order, 0.00405 ± 0.0034 and 0.000995 ± 0.0093.
Consider UCCUGCUACAGGUUGCAUAGUUUUUAGUUA, for which the “pre-steady-state target cleavage rate” value is 0.00998 ± 0.0028 under setting [1] and 0.0014 ± 0.0085 under setting [2].
With UCCUGGAACAGCUUGGAAAGUAUUUAGUUA, the “pre-steady-state target cleavage rate” value runs as follows: under setting [1], 0.0164 ± 0.0053; under setting [2], 0.000238 ± 0.041.
The like results for UCCUGGAUGACUUGCAUAGUAUUUAGUUA were, in that order, 0.0058 ± 0.0023 and 0.00112 ± 0.0091.
The like results for UCCUGGAUGAGCUUGCAUAGUAAUUAGUUA were, in that order, 0.0154 ± 0.0044 and 0.00175 ± 0.0068.
The like results for UCCUGCUACACCUUGCAAAGUAUUUAGUUA were, in that order, 0.00571 ± 0.0021 and 0.00103 ± 0.0087.
On to UCCUGGAACAGCUUGCAUAGUGAUUUAGUUA, for which the “pre-steady-state target cleavage rate” value by setting is: under setting [1], 0.0023 ± 0.0045; under setting [2], 0.000645 ± 0.011.
The like results for UCCUGGAUCAGCUUGCAUAGUGUUUAGUUA were, in that order, 0.0156 ± 0.0035 and 0.00696 ± 0.0045.
The like results for UCCUGGAUGUCGAACGUUAGUAUUUAGAUUA were, in that order, 0.000101 ± 0.084 and < 0.0001.
The like results for UCCUGGAUGUGCUUGCAUAGUAUUAAGUUA were, in that order, 0.00372 ± 0.0032 and 0.00115 ± 0.0088.
In the case of UCCUGGAUGAGCAUGCAUAGUAUUAAGUUA, the “pre-steady-state target cleavage rate” value reads like this: under setting [1], 0.00264 ± 0.0032; under setting [2], 0.00229 ± 0.0052.
The like results for UCCUGGAACAGCUUGGUUAGUAUUUAGUUA were, in that order, 0.0135 ± 0.005 and 0.00183 ± 0.0073.
The like results for UCCUGGAUGUCGAUGCAUAGUAUUUACGUUA were, in that order, 0.000487 ± 0.008 and 0.000146 ± 0.053.
With UCCUGGAUGUCGAACGUAUGUGAUUUAGUUA, the “pre-steady-state target cleavage rate” value runs as follows: under setting [1], 0.000101 ± 0.03; under setting [2], < 0.0001.
The like results for UCCUGGAUGUGCUUGCAUAGUAUUAUAGUUA were, in that order, 0.00369 ± 0.004 and 0.00104 ± 0.01.
The like results for UCCUGGAUCAGCUUGCAAAGUAUUUAGAUA were, in that order, 0.00558 ± 0.0029 and 0.000262 ± 0.028.
The like results for UCCUGCUACAGCUAGCAUAGUUUUUAGUUA were, in that order, 0.00472 ± 0.0016 and 0.000547 ± 0.0097.
Turning to UCCUGGAUCAGCUUGCAUAGUAUUUACUUA, the “pre-steady-state target cleavage rate” value is, setting by setting: under setting [1], 0.00218 ± 0.0028; under setting [2], < 0.0001.
The like results for UCCUGGAUCAGCUUGCAAAGUAUUAAGUUA were, in that order, 0.00373 ± 0.0026 and 0.000978 ± 0.011.
The like results for UCCUGGAUCAGCUUGCAUAGUUUUUAGUUA were, in that order, 0.00592 ± 0.0018 and 0.000944 ± 0.0099.
On to UCCUGCUACAGCGUUGCAUAGUAUUUAGUUA, for which the “pre-steady-state target cleavage rate” value under setting [1] was determined as 0.0103 ± 0.0024 and the “pre-steady-state target cleavage rate” value under setting [2] is 0.000789 ± 0.008.
The like results for UCCUGCUACAGCUUGCAUAGUAUUUAGUAUA were, in that order, 0.00675 ± 0.0019 and 0.000713 ± 0.011.
For UCCUGCUACAGCUUGGAAAGUAUUUAGUUA, the “pre-steady-state target cleavage rate” value under setting [1] was 0.0208 ± 0.0042 and the “pre-steady-state target cleavage rate” value under setting [2] is 0.00225 ± 0.0038.
The like results for UCCUGGAUGUUCUUGCAUAGUAUUUAGUUA were, in that order, 0.173 ± 0.068 and 0.00123 ± 0.011.
For UCCUGGUACAGCAUGCAAAGUAUUUAGUUA, the “pre-steady-state target cleavage rate” value is, setting by setting: under setting [1], 0.00646 ± 0.0023; under setting [2], 0.00142 ± 0.006.
The like results for UCCUGGAUGUCGAACGUUAGUAUAUAGUUA were, in that order, 0.000305 ± 0.019 and 0.000122 ± 0.046.
The like results for UCCUGCUACAGCUUGGAUUGUAUUUAGUUA were, in that order, 0.00362 ± 0.002 and 0.00035 ± 0.025.
The like results for UCCUGGAUGUGUUGCAUAGUAUUUAGUUA were, in that order, 0.0026 ± 0.0033 and 0.00289 ± 0.0049.
With UCCUGGAUGAGCUUGCUAUGUAUUUAGUUA, the “pre-steady-state target cleavage rate” value runs as follows: under setting [1], 0.00134 ± 0.0051; under setting [2], 0.000614 ± 0.013.
The like results for UCCUGGAACAGCUAGGAUAGUAUUUAGUUA were, in that order, 0.000949 ± 0.0072 and 0.00069 ± 0.0095.
As for UCCUGCUACAGCUUCGCAUAGUAUUUAGUUA, the “pre-steady-state target cleavage rate” value turned out to be 0.0225 ± 0.0071 under setting [1] and 0.000624 ± 0.011 under setting [2].
The like results for UCCUGGAAGAGCAUGCAUAGUAUUUAGUUA were, in that order, 0.0132 ± 0.004 and 0.00169 ± 0.0076.
The like results for UCCUGGAAGAGCUUGCAUAGUAUUAAGUUA were, in that order, 0.00519 ± 0.0018 and 0.000687 ± 0.014.
The like results for UCCUGGAUGUCGAUGCAUAGUAUCUAGUUA were, in that order, 0.00277 ± 0.0041 and 0.000505 ± 0.013.
As to UCCUGGAUCAGCCUUGCAUAGUAUUUAGUUA, the “pre-steady-state target cleavage rate” value was 0.0303 ± 0.0094 under setting [1] and 0.000578 ± 0.014 under setting [2].
The like results for UCCUGGAUGAGCUUGCAUAGUAAAUACAAA were, in that order, 0.00115 ± 0.0039 and 0.000267 ± 0.034.
For UCCUGCUACAGCUAGCAUAGUAUUUACUUA, the “pre-steady-state target cleavage rate” value under setting [1] stood at 0.00364 ± 0.0025 and the “pre-steady-state target cleavage rate” value under setting [2] amounted to 0.000367 ± 0.017.
The like results for UCCUGCUACAGCUUGCAUAAUAUUUAGUUA were, in that order, 0.00444 ± 0.0021 and 0.000364 ± 0.016.
The like results for UCCUGGUUCAGCUUGCAUUGUAUUUAGUUA were, in that order, 0.0223 ± 0.007 and 0.00144 ± 0.008.
The like results for UCCUGGAUCAGCUAGCAUAGUAUUAAGUUA were, in that order, 0.00318 ± 0.002 and 0.000534 ± 0.013.
UCCUGGAUGAACUUGCAUAGUAUUUAGUUA: the “pre-steady-state target cleavage rate” value worked out at 0.0179 ± 0.0064 under setting [1] and 0.00149 ± 0.0077 under setting [2].
The like results for UCCUGGAACAGCUUGCUAAGUAUUUAGUAA were, in that order, 0.000936 ± 0.0043 and 0.00051 ± 0.013.
The like results for UCCUGGUACAGCUUGCAUAGUAUUUAAGUUA were, in that order, 0.00375 ± 0.0039 and 0.00555 ± 0.0052.
The like results for UCCUGGAUGUCGUUGCAUAGUAAUUAGUAA were, in that order, 0.000428 ± 0.009 and 0.000261 ± 0.03.
Take UCCUGCUACAGCUUGCAUAGUUUUUAGUUA: the “pre-steady-state target cleavage rate” value turned out to be 0.00538 ± 0.0021 under setting [1] and 0.000612 ± 0.0075 under setting [2].
The like results for UCCUGGUACAGCUUGCUAUGUAUUUAGUUA were, in that order, 0.0029 ± 0.0044 and 0.00143 ± 0.0065.
The like results for UCCUGGUACAGCUUGCAUAGUUAUUUAGUUA were, in that order, 0.000972 ± 0.0053 and 0.0013 ± 0.0082.
The like results for UCCUGGUACAGCUUGCUUAGAAUUUAGUUA were, in that order, 0.000699 ± 0.016 and 0.000267 ± 0.041.
Take UCCUGGAUGUCCUGGCAUAGUAUUUAGUUA: the “pre-steady-state target cleavage rate” value worked out at 0.0055 ± 0.0047 under setting [1] and 0.000692 ± 0.011 under setting [2].
The like results for UCCUGGUAGAGCAUGCAUAGUAUUUAGUUA were, in that order, 0.0134 ± 0.004 and 0.000814 ± 0.013.

Source of the values: the supplement of paper PMC10338343.
